Data taken from patent US20060265769A1, “Gab2 (p97) gene and methods of use thereof” (Beth Israel Deaconess Medical Center, Inc., priority 2000, published 2006).
These are yes or no findings as the source states them, for the method shown. For part of these data: In cells and extracts the contact can be indirect. Some entries that bind do so weakly or less than the wild type. Values belong to the substance of their own block, whether it stands above or below them.

Protein sequences, listed by entry. Tags and fused reporters are not part of them. Lines headed by an entry give the natural chain unless they say otherwise; changes in a name come on top. Residues count along the entry.
UniProt P27986, residues 2-724: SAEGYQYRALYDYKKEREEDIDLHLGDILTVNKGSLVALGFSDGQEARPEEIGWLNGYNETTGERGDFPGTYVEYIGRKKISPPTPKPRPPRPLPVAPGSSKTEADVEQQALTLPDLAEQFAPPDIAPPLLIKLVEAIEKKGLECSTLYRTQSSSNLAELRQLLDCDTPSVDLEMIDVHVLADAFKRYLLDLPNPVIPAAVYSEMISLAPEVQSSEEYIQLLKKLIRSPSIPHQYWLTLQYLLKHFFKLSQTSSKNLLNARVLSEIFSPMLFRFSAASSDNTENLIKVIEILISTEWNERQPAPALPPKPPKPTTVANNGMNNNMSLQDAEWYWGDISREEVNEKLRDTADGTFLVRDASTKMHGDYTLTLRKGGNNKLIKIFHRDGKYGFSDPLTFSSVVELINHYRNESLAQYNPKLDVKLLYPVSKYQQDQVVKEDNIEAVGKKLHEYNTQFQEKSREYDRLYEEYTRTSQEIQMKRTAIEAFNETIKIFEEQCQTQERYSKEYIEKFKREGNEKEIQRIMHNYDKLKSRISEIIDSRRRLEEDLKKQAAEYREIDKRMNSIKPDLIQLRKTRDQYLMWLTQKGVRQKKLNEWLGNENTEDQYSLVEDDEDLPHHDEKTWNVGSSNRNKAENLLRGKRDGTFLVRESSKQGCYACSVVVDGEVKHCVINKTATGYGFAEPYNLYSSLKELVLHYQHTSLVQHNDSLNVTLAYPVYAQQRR
UniProt Q60631: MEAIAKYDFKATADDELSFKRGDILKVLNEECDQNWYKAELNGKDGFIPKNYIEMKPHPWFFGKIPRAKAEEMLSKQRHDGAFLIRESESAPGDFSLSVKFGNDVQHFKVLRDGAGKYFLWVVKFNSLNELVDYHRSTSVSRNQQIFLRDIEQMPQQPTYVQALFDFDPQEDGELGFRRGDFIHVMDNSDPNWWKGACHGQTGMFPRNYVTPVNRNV
UniProt P26450, residues 2-724: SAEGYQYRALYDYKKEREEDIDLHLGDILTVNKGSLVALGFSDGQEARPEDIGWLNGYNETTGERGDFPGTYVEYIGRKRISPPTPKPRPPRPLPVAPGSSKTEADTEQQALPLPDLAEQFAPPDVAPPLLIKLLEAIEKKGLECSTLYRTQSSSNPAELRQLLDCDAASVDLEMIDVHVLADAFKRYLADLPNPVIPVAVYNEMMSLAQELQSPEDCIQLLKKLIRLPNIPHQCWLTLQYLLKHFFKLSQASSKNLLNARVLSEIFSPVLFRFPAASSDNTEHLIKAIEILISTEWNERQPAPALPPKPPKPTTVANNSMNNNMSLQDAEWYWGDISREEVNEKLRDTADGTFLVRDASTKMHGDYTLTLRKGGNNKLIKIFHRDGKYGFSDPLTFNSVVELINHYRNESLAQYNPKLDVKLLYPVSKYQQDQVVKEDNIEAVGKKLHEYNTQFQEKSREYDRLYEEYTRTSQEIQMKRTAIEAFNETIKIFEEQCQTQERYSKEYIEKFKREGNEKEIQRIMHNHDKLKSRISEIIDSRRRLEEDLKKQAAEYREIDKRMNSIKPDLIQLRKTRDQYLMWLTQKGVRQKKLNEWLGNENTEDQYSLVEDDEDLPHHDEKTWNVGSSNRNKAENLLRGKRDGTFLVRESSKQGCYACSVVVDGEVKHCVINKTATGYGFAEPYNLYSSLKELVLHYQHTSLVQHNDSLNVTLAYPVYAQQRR
UniProt Q9UQC2: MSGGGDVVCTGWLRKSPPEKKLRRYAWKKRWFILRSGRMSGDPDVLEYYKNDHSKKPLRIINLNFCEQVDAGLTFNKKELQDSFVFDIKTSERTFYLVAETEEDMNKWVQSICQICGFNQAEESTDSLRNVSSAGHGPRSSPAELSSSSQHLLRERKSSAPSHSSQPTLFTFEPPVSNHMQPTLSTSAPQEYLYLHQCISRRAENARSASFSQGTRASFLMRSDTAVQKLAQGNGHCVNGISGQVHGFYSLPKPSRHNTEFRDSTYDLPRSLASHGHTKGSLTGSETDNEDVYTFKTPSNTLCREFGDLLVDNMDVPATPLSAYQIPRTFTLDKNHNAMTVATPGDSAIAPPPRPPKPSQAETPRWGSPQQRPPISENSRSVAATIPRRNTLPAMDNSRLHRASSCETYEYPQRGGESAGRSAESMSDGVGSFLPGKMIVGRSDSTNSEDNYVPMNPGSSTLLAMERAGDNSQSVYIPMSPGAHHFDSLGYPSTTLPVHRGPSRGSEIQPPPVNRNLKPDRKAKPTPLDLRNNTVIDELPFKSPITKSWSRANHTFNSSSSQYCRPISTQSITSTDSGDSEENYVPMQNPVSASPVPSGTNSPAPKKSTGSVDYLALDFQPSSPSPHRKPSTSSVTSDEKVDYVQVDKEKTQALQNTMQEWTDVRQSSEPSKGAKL
UniProt Q9Z1S8: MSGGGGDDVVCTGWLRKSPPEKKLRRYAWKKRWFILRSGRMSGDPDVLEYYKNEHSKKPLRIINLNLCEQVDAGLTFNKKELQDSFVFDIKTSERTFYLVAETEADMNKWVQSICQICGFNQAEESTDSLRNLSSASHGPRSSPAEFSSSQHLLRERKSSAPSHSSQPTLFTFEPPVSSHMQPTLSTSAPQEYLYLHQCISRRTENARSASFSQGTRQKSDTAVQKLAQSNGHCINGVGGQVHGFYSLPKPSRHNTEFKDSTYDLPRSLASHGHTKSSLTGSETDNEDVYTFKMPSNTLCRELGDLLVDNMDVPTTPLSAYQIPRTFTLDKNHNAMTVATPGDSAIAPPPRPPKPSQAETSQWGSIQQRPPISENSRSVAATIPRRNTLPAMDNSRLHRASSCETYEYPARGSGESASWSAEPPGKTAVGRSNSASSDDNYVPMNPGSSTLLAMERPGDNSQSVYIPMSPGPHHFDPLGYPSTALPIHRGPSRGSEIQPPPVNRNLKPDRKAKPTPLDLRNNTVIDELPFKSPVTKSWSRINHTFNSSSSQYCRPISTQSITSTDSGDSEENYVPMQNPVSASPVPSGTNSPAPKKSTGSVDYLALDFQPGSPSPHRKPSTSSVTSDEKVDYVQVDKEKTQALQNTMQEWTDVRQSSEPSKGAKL

Key:
[1] = molecular target: p85 (endogenous, in MDA-MB-486 cells) (UniProt P27986); assay: Gab2 immunoprecipitation followed by immunoblotting with p85 antibodies
Grb2 = Grb2 (UniProt Q60631); assay: co-immunoprecipitation, BaF3 cells expressing Gab2HA, with and without IL-3
p85 subunit of PI-3K [2] = molecular target: p85 subunit of PI-3K (UniProt P26450); assay: co-immunoprecipitation, IL-3-stimulated BaF3 cells expressing Gab2HA
Shc [3] = molecular target: T1, Shc (UniProt P98083); assay: as above
T1 sequence (looked up): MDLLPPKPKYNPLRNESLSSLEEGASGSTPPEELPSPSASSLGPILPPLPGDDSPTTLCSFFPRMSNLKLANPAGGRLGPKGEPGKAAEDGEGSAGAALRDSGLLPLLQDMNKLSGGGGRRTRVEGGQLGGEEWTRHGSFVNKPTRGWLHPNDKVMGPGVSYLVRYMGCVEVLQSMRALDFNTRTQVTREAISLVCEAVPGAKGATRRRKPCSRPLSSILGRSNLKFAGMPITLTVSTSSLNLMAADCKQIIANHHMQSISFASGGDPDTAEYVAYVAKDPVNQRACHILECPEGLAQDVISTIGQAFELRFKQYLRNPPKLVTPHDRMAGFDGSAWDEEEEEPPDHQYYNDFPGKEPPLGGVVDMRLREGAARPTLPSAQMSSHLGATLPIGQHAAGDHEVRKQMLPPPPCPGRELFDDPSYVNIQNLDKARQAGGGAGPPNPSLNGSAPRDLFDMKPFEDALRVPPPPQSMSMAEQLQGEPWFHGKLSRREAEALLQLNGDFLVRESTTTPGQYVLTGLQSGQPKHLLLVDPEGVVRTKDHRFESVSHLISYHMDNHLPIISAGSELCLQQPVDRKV

p85 subunit of PI-3K [4] = molecular target: p85 subunit of PI-3K (UniProt P26450); assay: co-immunoprecipitation from transfected BaF3 cells
Shc [5] = molecular target: T1, Shc; assay: co-immunoprecipitation from transfected BaF3 cells

- binding [1]: binds
Substance: Gab2 (endogenous, in Kit225, Jurkat and MDA-MB-486 cells) (from UniProt Q9UQC2 1-676)

- binding (Grb2): binds
- binding (p85 subunit of PI-3K [2]): binds
- binding (Shc [3]): binds
Substance: Gab2HA (from UniProt Q9Z1S8 1-665)

- binding (p85 subunit of PI-3K [4]): binds
- binding (Shc [5]): binds
Substance: Gab2ΔY2HA (from UniProt Q9Z1S8 1-602)
